Laboratory results: patent US9939427B2, “Method for evaluating the scent performance of perfumes or perfume mixtures” (Symrise AG, priority 2013, dated 2018)
At least one compound was matched to its structure with a doubt left.

Molecular target: T1, OR4E2 (Homo sapiens, UniProt Q8NGC2)
T1 construct: specific primers, which amplify the complete open reading frame; expressed in transfected cells; host or cells: HEK293
T1 sequence (Q8NGC2 1-313): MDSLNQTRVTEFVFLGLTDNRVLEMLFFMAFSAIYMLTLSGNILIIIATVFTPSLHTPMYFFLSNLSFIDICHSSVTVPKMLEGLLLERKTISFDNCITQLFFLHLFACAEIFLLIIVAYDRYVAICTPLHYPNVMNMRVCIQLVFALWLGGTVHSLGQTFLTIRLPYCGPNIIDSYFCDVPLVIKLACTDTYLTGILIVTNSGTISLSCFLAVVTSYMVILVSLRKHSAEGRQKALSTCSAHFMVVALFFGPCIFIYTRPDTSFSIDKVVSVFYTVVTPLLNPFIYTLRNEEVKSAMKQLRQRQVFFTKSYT
Experiment: Ca-imaging of OR4E2-transfected HEK293 cells
Assay type: cell-based
Settings: single odorants 200 μM
Method: HEK293 cells were cultivated in Petri dishes (Ø35 mm) as previously described (Benbernou et al. 2007). We grow up HEK293 cells in culture medium containing standard DMEM with 10% heat-inactivated fetal bovine serum, 2 mM L-glutamine, 100 units/ml penicillin, and 100 units/ml streptomycin in a humidified atmosphere (37° C., 5% CO2). After 2-3 days, the transfection process was carried out, whereby the cell culture was 70-80% confluent. The calciumphosphate method was applied to transfect DNA plasmid transiently in HEK293 cells in case of Ca-imaging method.
Calcium cations and phosphate anions created crystal precipitations coupled with DNA which could invade into the cells through endocytosis. […]
Calcium imaging of the transfected HEK293 cells was done by using chambers determinate an inverted microscope (Olympus; IX70) using a 10× objective (CPIanFL N Olympus). Fluorescence emission was determined every 4 s by using a CCD camera (Charge Coupled Device, C9100 Hamamatsu). […] Odorants were manually monitored to drop each 4-5 s to transfected cells. […]
In experiments, Fura-2 Acetoxymethylester (Fura-2/AM) was applied. […] According to this feature, the analysis of 340/380 nm excitation ratio for Fura-2 allows to quantify intracellular calcium levels. […]

Question: With COc1c(Cl)cc(Cl)cc1Cl [2-4-6 trichoroanisole, 2-4-6-Trichloroanisole] as the molecule, how does the “Response of OR4E2 to odorant, in words” value read?
Answer: OR4E2
